Source: PubChem BioAssay AID504834 (National Center for Advancing Translational Sciences (NCATS), 2011)
Hit rate of the full screen: of about 320,000 compounds, about 22,000 (6.9%) were called active. Inconclusive means that the source gave no clear call. Such entries were picked first, then a sample of the others. The call rests on the fitted dose curve; in most records, active means well fitted inhibition curve with a large enough effect; inconclusive means small, poorly fitted or top-dose-only effect, or another doubt; inactive means no such curve, though single readings can be large or run the other way. Potencies beside an inconclusive call are fits to weak or partial responses and may not hold up.
Potency means the concentration at half of the fitted maximal effect.

Assay: Primary qHTS for delayed death inhibitors of the malarial parasite plastid, 96 hour incubation
Conditions: P. falciparum luciferase reporter growth; series mostly up to 28.7 µM
Method in brief: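 Readout is luminescence from an integrated firefly luciferase in P. falciparum. Red cells, 2% hematocrit and 0.05% parasitemia final, were cultured with compound through two parasite generations (96 hours) at 37 C, 5% CO2.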
With Cc1ccc(S(=O)(=O)N2CCC(C(=O)NNC(=O)c3ccncc3)CC2)cc1 the Potency was inconclusive: 11.7 µM [inhibitor, single point].
With O=C(CSCC(=O)Nc1ccc2ccccc2c1)NCc1ccccc1 the Potency was inconclusive: 0.522 µM [inhibitor, full curve, poor fit].
For O=C1C(Cc2cnc[nH]2)NC(=S)N1c1ccccc1 (stereo not drawn), the Potency was inconclusive: 11.7 µM [inhibitor, single point].
With CCN1CCN(c2sc(S(C)(=O)=O)nc2S(=O)(=O)c2ccc(C)cc2)CC1 the Potency was inconclusive: 18.5 µM [inhibitor, single point].
With Cc1nn2c(N)c(-c3ccccc3)cnc2c1-c1ccc(Cl)cc1 the Potency was “inactive”.
With S=C(NCc1ccccc1Cl)Nc1ccccc1Cl the Potency was “inactive”.
With C=CCN1C(=O)CSC1=Nc1ccc(C(=O)O)cc1 the Potency was inconclusive: 4.65 µM [inhibitor, partial curve, poor fit].
For COc1cc2c(cc1OC)C(COc1ccc(F)cc1)N(C(=O)c1ccco1)CC2 (stereo not drawn), the Potency was inconclusive: 9.28 µM [inhibitor, partial curve, poor fit].
For CCCc1nnc(NC(=O)CCC(=O)N2CCN(Cc3ccc(Cl)cc3)CC2)s1, the Potency was active: 11.7 µM.
For CCOCC(O)CSCc1ccc(Cl)cc1 (stereo not drawn), the Potency was “inactive”.
In the case of C=CCSc1nnc(-c2c[nH]c3ccccc23)n1CC, the Potency is reported as inconclusive: 11.7 µM [inhibitor, single point].
For CCC(Cc1ccccc1)NC(=O)C1CCN(c2nn3c(=O)cc(C)nc3s2)CC1 (stereo not drawn), the Potency was active: 10.4 µM.
With COc1ccc([N+](=O)[O-])cc1N(CC(=O)O)S(C)(=O)=O the Potency was “inactive”.
With COc1nc(N=C(N)N)nc2c(C)cccc12 the Potency was inconclusive: 0.233 µM [inhibitor, full curve].
For COc1ccc(C(=O)N2CC3(C)CC2CC(C)(C)C3)cc1OC (stereo not drawn), the Potency was inconclusive: 11.7 µM [inhibitor, single point].
With COc1ccc2oc(C(=O)NCCc3ccccc3)c(C)c2c1 the Potency was “inactive”.
For O=Cc1ccc(O)c2ncccc12, the Potency was inconclusive: 1.04 µM [inhibitor, partial curve, poor fit].
In the case of CSc1ccccc1C(=O)N1CCN(c2cccc(Cl)c2)CC1, the Potency is reported as “inactive”.
In the case of Cc1cccc(NC2SC(=O)N(CC(=O)O)C2=O)c1 (stereo not drawn), the Potency is reported as inconclusive: 14.7 µM [inhibitor, single point].
For COc1ccc(-c2cc(=O)oc3cc(OC(C)C(=O)NCc4ccccn4)ccc23)cc1 (stereo not drawn), the Potency was inconclusive: 18.5 µM [inhibitor, single point].
In the case of FC(F)(F)c1ccc(N/N=C/c2cccnc2)nc1, the Potency is reported as inconclusive: 13.1 µM [inhibitor, single point].
For CC(C)(C)NC(=O)CN1CCC(O)(c2ccc3c(c2)OCO3)CC1, the Potency was “inactive”.
In the case of O=C(Nc1ccc(F)cc1)c1cccnc1NCCc1ccccc1, the Potency is reported as active: 3.7 µM.
With CCNC(=O)CC1C(=O)N(c2ccc(F)cc2)C(=O)N1Cc1ccc(OC)cc1 (stereo not drawn) the Potency was “inactive”.
With COc1ccc2c(c1)CCCN2C(N)=Nc1ccc(Cl)cc1 the Potency was inconclusive: 11.7 µM [inhibitor, partial curve, poor fit].
With CCOC(=O)c1ccc(NC(=O)CSc2nc(N3CCOCC3)nc(N3CCOCC3)n2)cc1 the Potency was “inactive”.
In the case of COc1ccc(C(=O)NCCc2nnc3ccc(SCC(=O)NCc4ccc(F)cc4)nn23)cc1, the Potency is reported as “inactive”.
With CC(C)CCNC(=O)CN1C(=O)CN=C(c2ccccc2)c2ccccc21 the Potency was inconclusive: 18.5 µM [inhibitor, single point].
For CC(/C=N/n1cnnc1)=C\c1ccccc1, the Potency was inconclusive: 0.0023 µM [inhibitor, full curve, poor fit].
In the case of CC(C)NC(=O)Cn1cc(C(=O)COc2ccccc2)c2ccccc21, the Potency is reported as “inactive”.
In the case of COc1ccc(C)cc1NC(=O)CN(c1ccccc1)S(C)(=O)=O, the Potency is reported as inconclusive: 18.5 µM [inhibitor, single point].
For CC(C)C(=O)N1CCN(c2ccccc2N)CC1, the Potency was inconclusive: 10.4 µM [inhibitor, single point].
With NC(N)=NS(=O)(=O)c1ccc(NC(=S)NC(=O)/C=C/c2ccc(F)cc2)cc1 the Potency was inconclusive: 9.28 µM [inhibitor, single point].
With CC1CCN(c2nc3c(c(=O)[nH]c(=O)n3C)n2CC(C)CSc2nnnn2-c2ccccc2)CC1 (stereo not drawn) the Potency was inconclusive: 1.31 µM [inhibitor, partial curve, poor fit].
For CCOc1ccccc1NC(=O)c1cccc(N2C(=O)CCC2=O)c1, the Potency was “inactive”.
For Cc1ccc(NC(=O)c2ccccc2)cc1-n1cnnn1, the Potency was inconclusive: 16.5 µM [inhibitor, partial curve, poor fit].
In the case of COc1ccc(-c2n[nH]c(=S)n2/N=C/c2cccn2C)cc1, the Potency is reported as inconclusive: 9.28 µM [inhibitor, single point].
For O=C(C1=C[C@@H](c2ccccc2)C[C@@H](OCc2ccc(CO)cc2)O1)N1CCCCCCC1, the Potency was active: 8.28 µM.
In the case of CN(C)CC1CSCCC1(O)c1ccc(Cl)cc1 (stereo not drawn), the Potency is reported as inconclusive: 18.5 µM [inhibitor, single point].
For CC(C)CNC(=O)C1C2C=CC(C2)C1C(=O)O (stereo not drawn), the Potency was “inactive”.
For CCCC1=[N+](CC(=O)c2ccc(C)cc2)CCn2cccc21, the Potency was inconclusive: 18.5 µM [inhibitor, single point].
For CCc1cc(C(=O)N2CCc3c([nH]c4ccccc34)C2c2ccc(OC)cc2F)no1 (stereo not drawn), the Potency was inconclusive: 18.5 µM [inhibitor, single point].
In the case of CSC1=N/C(=C\c2ccc(C)s2)C(=O)S1, the Potency is reported as inconclusive: 0.37 µM [inhibitor, full curve, poor fit].
With CN(Cc1nc(CC2CC2)no1)CC12CC3CC(CC(C3)C1)C2 the Potency was inconclusive: 1.31 µM [inhibitor, partial curve, poor fit].
With COc1ccc(-n2c(SCC(=O)Nc3cccc(C(=O)O)c3)nnc2-c2ccco2)cc1 the Potency was inconclusive: 10.4 µM [inhibitor, single point].
In the case of C=CCOn1c(=O)c(-c2cccs2)[n+]([O-])c2ccccc21, the Potency is reported as inconclusive: 18.5 µM [inhibitor, single point].
For CNC(=S)N(C)/N=C1/C(=O)N(Cc2c(Cl)cccc2Cl)c2ccccc21, the Potency was inconclusive: 10.4 µM [inhibitor, single point].
In the case of Cc1cc(N2CCN(C)CC2)nc2ccccc12, the Potency is reported as “inactive”.
For O=C(O)CS(=O)(=O)CC(=O)NCc1cccc(C(F)(F)F)c1, the Potency was “inactive”.
With COC(=O)C1=C(C)N=c2s/c(=C3\C(=O)Nc4ccccc43)c(=O)n2C1c1ccccc1 (stereo not drawn) the Potency was “inactive”.
With COc1ccc(C(=O)NNC(=O)C(=O)NCc2ccccc2)cc1 the Potency was inconclusive: 0.0029 µM [inhibitor, full curve, poor fit].
In the case of COC(=O)C1=C(C)Nc2ncnn2C1c1ccccn1 (stereo not drawn), the Potency is reported as inconclusive: 18.5 µM [inhibitor, single point].
For C=CCn1c(SCC(=O)NC2CC2)nnc1-c1cccc(OC)c1, the Potency was “inactive”.
In the case of COc1cccc(-n2c(SCC(=O)c3c[nH]c4ccccc34)nc3ccccc3c2=O)c1, the Potency is reported as inconclusive: 13.1 µM [inhibitor, single point].
In the case of COc1ccc([N+](=O)[O-])cc1N(CC(=O)NCCCOC(C)C)S(C)(=O)=O, the Potency is reported as inconclusive: 18.5 µM [inhibitor, single point].
For O=C(CN1C2CCCC1CC(NC(=O)c1ccco1)C2)Nc1ccccc1 (stereo not drawn), the Potency was inconclusive: 8.28 µM [inhibitor, partial curve, poor fit].
With COc1ccc2[nH]c3c(=O)n(Cc4ccc(C(=O)N5CCCC5)cc4)c(=S)[nH]c3c2c1 the Potency was “inactive”.
In the case of Cc1csc(SCC(=O)Nc2cc(S(=O)(=O)N(C)C)ccc2C)n1, the Potency is reported as “inactive”.
For O=c1oc2ccccc2c(NC2CCCCC2)c1NS(=O)(=O)c1ccc(Br)cc1, the Potency was active: 10.4 µM.
With Cn1c(Cc2ccccc2)nnc1SCC(=O)Nc1ccc(N2CCOCC2)cc1 the Potency was “inactive”.
In the case of Cc1cccc(-c2onc3ccc(C(=O)/C=C/N(C)C)cc23)c1, the Potency is reported as inconclusive: 18.5 µM [inhibitor, single point].
In the case of Cc1ccc(C)c(N2N=C(C(=O)OCC(=O)N(C)c3ccccc3)CCC2=O)c1, the Potency is reported as “inactive”.
With O=S(=O)(Nc1cc(F)ccc1F)c1cccc2nsnc12 the Potency was inconclusive: 18.5 µM [inhibitor, single point].
For CN1CCc2c(sc(NC(=O)CS(=O)(=O)c3ccccc3)c2C(N)=O)C1, the Potency was “inactive”.
With CCC(C)NC(=O)C1CCCN(C(=O)Nc2ccc(F)cc2)C1 (stereo not drawn) the Potency was inconclusive: 11.7 µM [inhibitor, single point].
In the case of O=C(CN1C(=O)NC2(CCCCC2)C1=O)N1CCN(S(=O)(=O)c2ccc(Cl)s2)CC1, the Potency is reported as inconclusive: 13.1 µM [inhibitor, partial curve, poor fit].
In the case of COc1ccc(-c2ccccc2NC(=O)C2CCCN(Cc3ccco3)C2)cc1 (stereo not drawn), the Potency is reported as inconclusive: 5.22 µM [inhibitor, partial curve, poor fit].
In the case of Cc1ccc(C)c(OCC(=O)Nc2cc(NC(=O)COc3cc(C)ccc3C)cc(C(=O)O)c2)c1, the Potency is reported as active: 8.28 µM.
In the case of Cn1cc(CN2CCCC(C(=O)c3nccn3C)C2)c(-c2cccc(Cl)c2)n1 (stereo not drawn), the Potency is reported as inconclusive: 0.928 µM [inhibitor, full curve].
With Cc1ccc(-n2ncc3c(=O)n(CC(=O)NC4CCCCC4)cnc32)cc1C the Potency was inconclusive: 18.5 µM [inhibitor, single point].
In the case of Cc1cc2c(cc1C)N(C(=O)CSC1=NCCS1)C(C)(C)c1ssc(=S)c1-2, the Potency is reported as active: 2.62 µM.
With NC(N)=NC(N)=Nc1cccc2ccccc12 the Potency was “inactive”.
In the case of N#C/C(=C(/O)c1ccco1)c1nc2ccccc2s1, the Potency is reported as “inactive”.
